From the supplement of paper PMC6411743
± gives the standard deviation of the averaged measurements. This is one part of the list.

Protein sequences, listed by entry. Tags and fused reporters are not part of them. Lines headed by an entry give the natural chain unless they say otherwise; changes in a name come on top.
UniProt Q9H446: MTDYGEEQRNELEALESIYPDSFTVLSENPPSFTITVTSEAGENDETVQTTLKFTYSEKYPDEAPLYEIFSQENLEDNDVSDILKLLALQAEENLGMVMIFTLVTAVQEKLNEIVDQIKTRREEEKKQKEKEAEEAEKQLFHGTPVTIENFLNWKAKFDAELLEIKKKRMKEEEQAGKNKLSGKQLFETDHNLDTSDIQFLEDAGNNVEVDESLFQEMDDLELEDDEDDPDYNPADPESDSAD
UniProt Q9H4A4: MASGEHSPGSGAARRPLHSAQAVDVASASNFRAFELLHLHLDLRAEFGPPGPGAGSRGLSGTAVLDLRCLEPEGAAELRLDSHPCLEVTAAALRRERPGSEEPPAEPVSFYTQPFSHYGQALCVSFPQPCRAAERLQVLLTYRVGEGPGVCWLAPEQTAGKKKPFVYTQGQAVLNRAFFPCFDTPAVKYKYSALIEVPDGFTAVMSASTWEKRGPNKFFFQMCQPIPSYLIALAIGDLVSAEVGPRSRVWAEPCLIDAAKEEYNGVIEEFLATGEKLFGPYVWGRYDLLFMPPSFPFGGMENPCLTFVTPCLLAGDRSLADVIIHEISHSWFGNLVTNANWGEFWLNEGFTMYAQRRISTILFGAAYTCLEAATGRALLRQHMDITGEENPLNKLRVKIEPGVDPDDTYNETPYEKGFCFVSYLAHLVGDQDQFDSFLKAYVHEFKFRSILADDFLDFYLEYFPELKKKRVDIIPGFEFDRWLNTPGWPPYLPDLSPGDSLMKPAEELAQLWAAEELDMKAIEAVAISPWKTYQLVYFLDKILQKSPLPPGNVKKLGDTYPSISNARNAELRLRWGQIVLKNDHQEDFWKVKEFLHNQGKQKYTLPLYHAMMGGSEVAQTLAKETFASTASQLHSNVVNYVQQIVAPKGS
UniProt Q53GS9: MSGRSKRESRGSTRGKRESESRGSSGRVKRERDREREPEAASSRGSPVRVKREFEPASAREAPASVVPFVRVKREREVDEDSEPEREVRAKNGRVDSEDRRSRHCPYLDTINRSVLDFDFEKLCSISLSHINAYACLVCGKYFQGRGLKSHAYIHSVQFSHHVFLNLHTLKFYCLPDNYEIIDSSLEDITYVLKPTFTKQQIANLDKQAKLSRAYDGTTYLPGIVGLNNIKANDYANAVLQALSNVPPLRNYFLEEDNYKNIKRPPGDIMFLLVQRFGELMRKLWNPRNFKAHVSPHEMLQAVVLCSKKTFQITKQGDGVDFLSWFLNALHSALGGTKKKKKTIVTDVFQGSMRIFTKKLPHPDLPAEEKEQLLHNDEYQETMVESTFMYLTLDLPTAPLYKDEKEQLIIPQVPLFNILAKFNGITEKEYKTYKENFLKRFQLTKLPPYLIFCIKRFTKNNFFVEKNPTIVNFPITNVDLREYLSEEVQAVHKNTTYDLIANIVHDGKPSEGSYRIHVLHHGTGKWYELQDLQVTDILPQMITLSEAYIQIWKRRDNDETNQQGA
UniProt Q5TC12: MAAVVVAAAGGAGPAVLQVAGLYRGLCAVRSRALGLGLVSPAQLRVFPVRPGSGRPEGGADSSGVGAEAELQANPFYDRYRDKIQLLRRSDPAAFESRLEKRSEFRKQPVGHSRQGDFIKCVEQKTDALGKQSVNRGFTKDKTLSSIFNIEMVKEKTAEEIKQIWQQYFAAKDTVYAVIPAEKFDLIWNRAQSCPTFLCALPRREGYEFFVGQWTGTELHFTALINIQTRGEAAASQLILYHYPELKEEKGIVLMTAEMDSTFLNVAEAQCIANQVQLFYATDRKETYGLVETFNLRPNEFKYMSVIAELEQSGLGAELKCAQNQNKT
UniProt Q9Y6E0: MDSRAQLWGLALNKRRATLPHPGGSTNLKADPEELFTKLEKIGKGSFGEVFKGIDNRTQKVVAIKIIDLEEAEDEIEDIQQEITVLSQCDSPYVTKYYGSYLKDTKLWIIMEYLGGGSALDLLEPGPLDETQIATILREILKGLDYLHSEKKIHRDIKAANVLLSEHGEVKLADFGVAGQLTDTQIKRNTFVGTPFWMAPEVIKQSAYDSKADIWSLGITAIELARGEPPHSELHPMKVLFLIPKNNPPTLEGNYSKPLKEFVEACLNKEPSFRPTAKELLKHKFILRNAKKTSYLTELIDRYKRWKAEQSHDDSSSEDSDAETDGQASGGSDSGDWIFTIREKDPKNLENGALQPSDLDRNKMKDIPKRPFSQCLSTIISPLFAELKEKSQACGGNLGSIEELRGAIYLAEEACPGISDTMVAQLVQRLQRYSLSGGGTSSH
UniProt Q03154: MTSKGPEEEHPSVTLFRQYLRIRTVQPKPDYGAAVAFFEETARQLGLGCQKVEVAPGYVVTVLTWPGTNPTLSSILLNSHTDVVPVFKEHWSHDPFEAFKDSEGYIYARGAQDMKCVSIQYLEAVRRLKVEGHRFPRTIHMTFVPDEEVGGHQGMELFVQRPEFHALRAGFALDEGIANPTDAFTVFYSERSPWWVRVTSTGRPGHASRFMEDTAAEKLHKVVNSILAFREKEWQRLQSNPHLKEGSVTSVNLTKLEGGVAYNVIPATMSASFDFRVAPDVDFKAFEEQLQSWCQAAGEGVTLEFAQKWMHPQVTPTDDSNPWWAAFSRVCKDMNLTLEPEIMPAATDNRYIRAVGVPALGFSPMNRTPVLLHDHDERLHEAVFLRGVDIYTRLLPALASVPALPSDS
UniProt A8MWD9, whole entry, looked up: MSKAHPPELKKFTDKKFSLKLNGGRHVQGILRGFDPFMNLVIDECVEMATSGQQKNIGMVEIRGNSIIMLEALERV
UniProt P62308, whole entry, looked up: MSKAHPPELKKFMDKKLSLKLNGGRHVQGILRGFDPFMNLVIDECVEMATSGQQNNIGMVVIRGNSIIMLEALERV
UniProt O95168, whole entry: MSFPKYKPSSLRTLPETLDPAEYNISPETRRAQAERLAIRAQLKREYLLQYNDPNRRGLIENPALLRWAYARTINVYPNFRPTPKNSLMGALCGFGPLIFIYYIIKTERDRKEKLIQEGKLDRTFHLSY
UniProt Q8NBQ5: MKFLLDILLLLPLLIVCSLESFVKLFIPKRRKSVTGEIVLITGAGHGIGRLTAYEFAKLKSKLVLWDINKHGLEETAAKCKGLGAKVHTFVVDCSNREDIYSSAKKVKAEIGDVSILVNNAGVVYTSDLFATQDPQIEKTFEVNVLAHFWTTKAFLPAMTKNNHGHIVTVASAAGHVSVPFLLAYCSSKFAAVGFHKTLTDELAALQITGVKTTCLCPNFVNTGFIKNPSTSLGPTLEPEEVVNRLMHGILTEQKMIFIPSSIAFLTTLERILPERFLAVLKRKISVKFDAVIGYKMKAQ
UniProt Q9NQG6: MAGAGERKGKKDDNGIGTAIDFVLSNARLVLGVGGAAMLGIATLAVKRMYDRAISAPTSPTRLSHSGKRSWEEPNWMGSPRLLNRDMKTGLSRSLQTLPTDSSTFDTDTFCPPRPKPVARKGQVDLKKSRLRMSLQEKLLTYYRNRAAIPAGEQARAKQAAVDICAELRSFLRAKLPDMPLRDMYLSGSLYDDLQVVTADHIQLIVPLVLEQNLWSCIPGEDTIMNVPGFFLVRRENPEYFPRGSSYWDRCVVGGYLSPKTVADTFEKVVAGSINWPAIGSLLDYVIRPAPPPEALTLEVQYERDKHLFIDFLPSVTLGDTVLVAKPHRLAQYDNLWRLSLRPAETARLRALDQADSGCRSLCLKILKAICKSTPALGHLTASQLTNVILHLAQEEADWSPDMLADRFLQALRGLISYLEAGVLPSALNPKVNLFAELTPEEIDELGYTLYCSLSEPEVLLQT
UniProt Q9Y530: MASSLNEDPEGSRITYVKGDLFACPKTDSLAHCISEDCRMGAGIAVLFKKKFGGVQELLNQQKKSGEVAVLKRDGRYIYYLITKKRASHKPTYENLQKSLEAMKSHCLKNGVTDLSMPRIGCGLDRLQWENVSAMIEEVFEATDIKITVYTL
UniProt P63098, whole entry, looked up: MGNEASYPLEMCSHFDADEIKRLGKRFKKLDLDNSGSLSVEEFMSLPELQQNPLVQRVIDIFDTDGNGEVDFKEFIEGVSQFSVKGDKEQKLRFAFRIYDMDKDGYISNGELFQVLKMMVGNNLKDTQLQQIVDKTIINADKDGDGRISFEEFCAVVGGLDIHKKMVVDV
UniProt Q9UBU8, whole entry: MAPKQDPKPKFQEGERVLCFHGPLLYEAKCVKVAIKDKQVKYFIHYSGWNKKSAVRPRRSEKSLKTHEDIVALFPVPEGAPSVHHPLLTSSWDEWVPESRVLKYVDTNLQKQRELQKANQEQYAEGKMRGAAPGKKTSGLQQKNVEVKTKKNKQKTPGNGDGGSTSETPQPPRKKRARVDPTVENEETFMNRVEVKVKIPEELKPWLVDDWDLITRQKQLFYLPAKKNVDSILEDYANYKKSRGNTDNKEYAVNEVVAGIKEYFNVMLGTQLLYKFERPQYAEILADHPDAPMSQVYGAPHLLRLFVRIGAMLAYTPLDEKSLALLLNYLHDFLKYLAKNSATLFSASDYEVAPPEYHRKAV
UniProt Q9UDY4: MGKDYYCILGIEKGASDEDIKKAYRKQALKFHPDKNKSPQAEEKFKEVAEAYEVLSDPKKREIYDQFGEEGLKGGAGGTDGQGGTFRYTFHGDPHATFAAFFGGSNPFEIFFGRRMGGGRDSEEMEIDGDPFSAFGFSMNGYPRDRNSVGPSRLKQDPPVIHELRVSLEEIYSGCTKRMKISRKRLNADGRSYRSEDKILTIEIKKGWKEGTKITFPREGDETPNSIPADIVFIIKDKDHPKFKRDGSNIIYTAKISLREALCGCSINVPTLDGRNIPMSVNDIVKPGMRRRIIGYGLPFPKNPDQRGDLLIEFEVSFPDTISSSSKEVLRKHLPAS
UniProt Q6ZWJ1: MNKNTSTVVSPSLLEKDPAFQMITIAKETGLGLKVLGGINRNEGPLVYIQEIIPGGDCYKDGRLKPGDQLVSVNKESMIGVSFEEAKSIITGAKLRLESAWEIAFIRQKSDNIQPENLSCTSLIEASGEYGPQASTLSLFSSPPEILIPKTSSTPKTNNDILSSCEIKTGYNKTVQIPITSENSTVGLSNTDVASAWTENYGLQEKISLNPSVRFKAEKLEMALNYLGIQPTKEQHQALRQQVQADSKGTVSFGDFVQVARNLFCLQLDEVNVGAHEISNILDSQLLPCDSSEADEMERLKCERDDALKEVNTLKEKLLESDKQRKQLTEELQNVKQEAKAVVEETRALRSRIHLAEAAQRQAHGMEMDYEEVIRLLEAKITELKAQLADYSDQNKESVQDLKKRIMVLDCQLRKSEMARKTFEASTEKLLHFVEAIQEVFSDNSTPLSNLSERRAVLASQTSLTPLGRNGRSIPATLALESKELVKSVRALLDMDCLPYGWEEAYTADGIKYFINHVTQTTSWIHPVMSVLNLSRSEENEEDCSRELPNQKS
UniProt Q9BUL8: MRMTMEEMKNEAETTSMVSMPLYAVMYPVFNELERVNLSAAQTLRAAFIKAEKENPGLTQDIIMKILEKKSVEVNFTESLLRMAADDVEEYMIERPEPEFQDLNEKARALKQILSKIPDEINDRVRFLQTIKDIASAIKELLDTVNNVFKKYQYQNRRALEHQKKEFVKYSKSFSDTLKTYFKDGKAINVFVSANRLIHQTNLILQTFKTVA
UniProt P15954, whole entry: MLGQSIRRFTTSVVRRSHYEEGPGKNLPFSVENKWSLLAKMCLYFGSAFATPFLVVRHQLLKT
UniProt P52747: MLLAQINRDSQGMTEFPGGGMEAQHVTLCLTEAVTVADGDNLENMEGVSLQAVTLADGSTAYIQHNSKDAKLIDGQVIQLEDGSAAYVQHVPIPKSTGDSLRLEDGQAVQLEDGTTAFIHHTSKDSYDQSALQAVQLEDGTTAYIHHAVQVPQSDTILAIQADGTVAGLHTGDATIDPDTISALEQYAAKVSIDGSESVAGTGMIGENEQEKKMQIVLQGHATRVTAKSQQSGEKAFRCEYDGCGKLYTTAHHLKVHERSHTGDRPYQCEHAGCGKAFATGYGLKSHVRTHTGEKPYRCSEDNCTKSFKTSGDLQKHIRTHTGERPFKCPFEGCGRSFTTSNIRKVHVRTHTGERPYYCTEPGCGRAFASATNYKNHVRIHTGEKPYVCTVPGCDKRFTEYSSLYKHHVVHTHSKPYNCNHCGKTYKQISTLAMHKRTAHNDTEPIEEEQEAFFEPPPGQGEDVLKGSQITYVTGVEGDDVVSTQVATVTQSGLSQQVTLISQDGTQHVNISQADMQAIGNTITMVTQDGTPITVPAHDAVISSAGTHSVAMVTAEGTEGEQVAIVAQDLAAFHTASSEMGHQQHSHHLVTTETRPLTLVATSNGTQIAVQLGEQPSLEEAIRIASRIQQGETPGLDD
UniProt P08174: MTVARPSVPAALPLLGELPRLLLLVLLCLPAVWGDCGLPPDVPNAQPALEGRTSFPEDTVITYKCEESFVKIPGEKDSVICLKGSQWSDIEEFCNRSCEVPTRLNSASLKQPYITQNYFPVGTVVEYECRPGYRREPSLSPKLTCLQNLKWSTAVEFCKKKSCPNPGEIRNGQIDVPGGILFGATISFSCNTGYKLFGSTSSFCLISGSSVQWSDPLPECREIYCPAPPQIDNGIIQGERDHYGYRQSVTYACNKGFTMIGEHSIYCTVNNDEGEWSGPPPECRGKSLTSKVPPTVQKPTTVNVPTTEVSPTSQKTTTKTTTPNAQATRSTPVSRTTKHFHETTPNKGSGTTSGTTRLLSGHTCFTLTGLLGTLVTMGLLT

Compound: Nc1nc2c(ncn2[C@@H]2O[C@H](COP(=O)(O)OP(=O)(O)OP(=O)(O)O)[C@@H](O)[C@H]2O)c(=O)[nH]1 [guanosine triphosphate]
Assay: NP40-soluble protein abundance relative to vehicle (solubility fold change) (ratio); higher = more soluble protein in presence of GTP
Method in brief: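 Across three independent experiments, values are fold changes against the detergent-processed vehicle for each replicate, based on vsn-normalised intensities. The samples were Jurkat crude lysate treated with eight concentrations (0.1 to 10 mM) for 10 min at room temperature and then 3 min at 37 °C. Lysate was solubilised with 0.8% NP40 and benzonase, ultracentrifuged, and the supernatant analysed by TMT-labelled LC-MS/MS.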

| Target | NP40-soluble protein abundance (concentration: 0.1mM) | NP40-soluble protein abundance (concentration: 0.5mM) | NP40-soluble protein abundance (concentration: 1mM) | NP40-soluble protein abundance (concentration: 2mM) | NP40-soluble protein abundance (concentration: 4mM) | NP40-soluble protein abundance (concentration: 6mM) | NP40-soluble protein abundance (concentration: 8mM) | NP40-soluble protein abundance (concentration: 10mM) |
| --- | --- | --- | --- | --- | --- | --- | --- | --- |
| E5RGS5 and related entries (UniProt Q9H446) | 0.955 ± 0.18 | 0.964 ± 0.12 | 0.903 ± 0.13 | 0.886 ± 0.15 | 0.852 ± 0.13 | 0.852 ± 0.12 | 0.865 ± 0.094 | 0.847 ± 0.1 |
| A6NKB8 and related entries (UniProt Q9H4A4) | 0.997 ± 0.023 | 1.01 ± 0.013 | 0.899 ± 0.017 | 0.915 ± 0.037 | 0.873 ± 0.039 | 0.881 ± 0.031 | 0.851 ± 0.059 | 0.829 ± 0.078 |
| B4DEN4 and related entries (UniProt Q8WV99) | 0.981 ± 0.052 | 1.01 ± 0.076 | 1.07 ± 0.1 | 0.998 ± 0.057 | 0.958 ± 0.078 | 1.03 ± 0.14 | 1.06 ± 0.15 | 1.05 ± 0.13 |
| B9A018 and related entries (UniProt Q53GS9) | 1.06 ± 0.041 | 1.1 ± 0.073 | 1.04 ± 0.057 | 1.11 ± 0.13 | 1.17 ± 0.086 | 1.2 ± 0.088 | 1.21 ± 0.016 | 1.21 ± 0.12 |
| C9J6N9 and related entries (UniProt Q92890) | 1.04 ± 0.041 | 1.03 ± 0.035 | 0.98 ± 0.01 | 0.937 ± 0.03 | 0.947 ± 0.022 | 0.934 ± 0.034 | 0.948 ± 0.017 | 0.896 ± 0.036 |
| A8MRA7 and related entries (UniProt Q5TC12) | 0.961 ± 0.017 | 0.922 ± 0.016 | 0.954 ± 0.056 | 0.951 ± 0.061 | 0.923 ± 0.023 | 0.87 ± 0.08 | 0.936 ± 0.011 | 0.943 ± 0.032 |
| B4DR80 and related entries (UniProt Q9Y6E0) | 1 ± 0.035 | 0.983 ± 0.059 | 1.03 ± 0.074 | 0.968 ± 0.094 | 0.944 ± 0.051 | 0.979 ± 0.076 | 0.979 ± 0.068 | 0.948 ± 0.065 |
| C9JMV9 and related entries (UniProt Q03154+C9JMV9) | 1.03 ± 0.012 | 1.03 ± 0.011 | 0.97 ± 0.078 | 0.924 ± 0.036 | 0.954 ± 0.019 | 0.933 ± 0.031 | 0.94 ± 0.05 | 0.956 ± 0.12 |
| A8MWD9 and related entries (UniProt P62308+A8MWD9) | 0.961 ± 0.1 | 1.02 ± 0.057 | 1.14 ± 0.086 | 1.19 ± 0.045 | 1.24 ± 0.078 | 1.28 ± 0.053 | 1.33 ± 0.084 | 1.44 ± 0.16 |
| C9JXQ9 and related entries (UniProt O95168) | 1.01 ± 0.24 | 1.06 ± 0.21 | 1.08 ± 0.12 | 1.17 ± 0.17 | 1.15 ± 0.13 | 1.1 ± 0.16 | 1.15 ± 0.15 | 1.21 ± 0.27 |
| D6RCD0 and related entries (UniProt Q8NBQ5) | 1.07 ± 0.061 | 1.03 ± 0.15 | 0.909 ± 0.07 | 0.971 ± 0.15 | 0.931 ± 0.17 | 0.897 ± 0.13 | 0.89 ± 0.12 | 0.921 ± 0.087 |
| D6RD47 and related entries (UniProt P62266) | 0.983 ± 0.06 | 1.05 ± 0.074 | 1.02 ± 0.13 | 0.99 ± 0.19 | 0.859 ± 0.25 | 0.875 ± 0.24 | 0.737 ± 0.21 | 0.836 ± 0.24 |
| B0QY95 and related entries (UniProt Q9NQG6+B0QY95) | 1.16 ± 0.056 | 1.11 ± 0.091 | 1.07 ± 0.072 | 1.03 ± 0.086 | 1.04 ± 0.087 | 1.04 ± 0.03 | 1.01 ± 0.015 | 1.03 ± 0.028 |
| C9JNE2 and related entries (UniProt Q9Y530) | 0.9849 ± 0.0069 | 0.9232 ± 0.0085 | 0.95 ± 0.058 | 0.943 ± 0.056 | 0.969 ± 0.084 | 0.921 ± 0.08 | 0.902 ± 0.076 | 0.913 ± 0.083 |
| D3YTA9 and related entries (UniProt H7BYZ3+F6U1T9+P63098+D3YTA9) | 0.935 ± 0.039 | 0.906 ± 0.038 | 0.9516 ± 0.0055 | 0.95 ± 0.024 | 0.934 ± 0.02 | 0.927 ± 0.047 | 0.918 ± 0.072 | 0.95 ± 0.04 |
| B3KTM8 and related entries (UniProt Q9UBU8) | 0.956 ± 0.012 | 0.986 ± 0.054 | 1.07 ± 0.041 | 1.05 ± 0.093 | 1.08 ± 0.065 | 1.09 ± 0.083 | 1.149 ± 0.0086 | 1.13 ± 0.04 |
| C9JUL4 and related entries (UniProt Q9UDY4) | 1.02 ± 0.089 | 1.02 ± 0.056 | 0.867 ± 0.042 | 0.946 ± 0.097 | 0.94 ± 0.087 | 0.948 ± 0.055 | 0.9 ± 0.032 | 0.893 ± 0.051 |
| B5MCT9 and related entries (UniProt Q6ZWJ1) | 0.973 ± 0.074 | 0.948 ± 0.048 | 0.999 ± 0.06 | 0.97 ± 0.066 | 0.959 ± 0.13 | 0.979 ± 0.074 | 0.954 ± 0.099 | 0.956 ± 0.089 |
| C9JKQ7 and related entries (UniProt P22102) | 0.96 ± 0.015 | 0.985 ± 0.03 | 0.9188 ± 0.0076 | 0.909 ± 0.023 | 0.895 ± 0.026 | 0.894 ± 0.017 | 0.863 ± 0.039 | 0.863 ± 0.022 |
| C9J5C3 and related entries (UniProt Q9BUL8) | 0.918 ± 0.04 | 0.918 ± 0.073 | 0.933 ± 0.033 | 0.905 ± 0.069 | 0.908 ± 0.075 | 0.906 ± 0.071 | 0.901 ± 0.058 | 0.906 ± 0.067 |
| A8MT02 and related entries (UniProt P14678) | 1.06 ± 0.13 | 1.06 ± 0.13 | 1.19 ± 0.21 | 1.21 ± 0.19 | 1.24 ± 0.26 | 1.29 ± 0.19 | 1.36 ± 0.23 | 1.44 ± 0.34 |
| D6R9Z7 and related entries (UniProt P15954) | 1.01 ± 0.21 | 0.887 ± 0.051 | 1.04 ± 0.14 | 0.9732 ± 0.0089 | 1.03 ± 0.1 | 0.984 ± 0.07 | 1.02 ± 0.094 | 1.13 ± 0.16 |
| B1AL69 and related entries (UniProt Q7L3B6) | 0.954 ± 0.052 | 0.907 ± 0.13 | 1.05 ± 0.069 | 1.02 ± 0.045 | 0.95 ± 0.066 | 0.998 ± 0.049 | 0.984 ± 0.025 | 0.983 ± 0.086 |
| E7EN86 and related entries (UniProt P52747) | 1.06 ± 0.038 | 1.03 ± 0.024 | 0.988 ± 0.058 | 0.94 ± 0.013 | 0.988 ± 0.076 | 0.939 ± 0.055 | 1.03 ± 0.013 | 1.02 ± 0.045 |
| B1AP13 and related entries (UniProt P08174) | 0.882 ± 0.042 | 0.894 ± 0.029 | 0.859 ± 0.11 | 0.84 ± 0.097 | 0.792 ± 0.082 | 0.837 ± 0.028 | 0.828 ± 0.087 | 0.847 ± 0.038 |
| C9IY40 and related entries (UniProt Q5T653) | 1.13 ± 0.13 | 1.21 ± 0.24 | 1.28 ± 0.3 | 1.41 ± 0.47 | 1.39 ± 0.45 | 1.35 ± 0.43 | 1.32 ± 0.43 | 1.32 ± 0.41 |

Exported with bars between the fields: entries from further up.
Target | NP40-soluble protein abundance (concentration: 0.1mM) | NP40-soluble protein abundance (concentration: 0.5mM) | NP40-soluble protein abundance (concentration: 1mM) | NP40-soluble protein abundance (concentration: 2mM) | NP40-soluble protein abundance (concentration: 4mM) | NP40-soluble protein abundance (concentration: 6mM) | NP40-soluble protein abundance (concentration: 8mM) | NP40-soluble protein abundance (concentration: 10mM)
B4DEN4 and related entries (UniProt Q8WV99) | 0.981 ± 0.052 | 1.01 ± 0.076 | 1.07 ± 0.1 | 0.998 ± 0.057 | 0.958 ± 0.078 | 1.03 ± 0.14 | 1.06 ± 0.15 | 1.05 ± 0.13
B9A018 and related entries (UniProt Q53GS9) | 1.06 ± 0.041 | 1.1 ± 0.073 | 1.04 ± 0.057 | 1.11 ± 0.13 | 1.17 ± 0.086 | 1.2 ± 0.088 | 1.21 ± 0.016 | 1.21 ± 0.12
D6RD47 and related entries (UniProt P62266) | 0.983 ± 0.06 | 1.05 ± 0.074 | 1.02 ± 0.13 | 0.99 ± 0.19 | 0.859 ± 0.25 | 0.875 ± 0.24 | 0.737 ± 0.21 | 0.836 ± 0.24
B3KTM8 and related entries (UniProt Q9UBU8) | 0.956 ± 0.012 | 0.986 ± 0.054 | 1.07 ± 0.041 | 1.05 ± 0.093 | 1.08 ± 0.065 | 1.09 ± 0.083 | 1.149 ± 0.0086 | 1.13 ± 0.04
C9JUL4 and related entries (UniProt Q9UDY4) | 1.02 ± 0.089 | 1.02 ± 0.056 | 0.867 ± 0.042 | 0.946 ± 0.097 | 0.94 ± 0.087 | 0.948 ± 0.055 | 0.9 ± 0.032 | 0.893 ± 0.051
C9JKQ7 and related entries (UniProt P22102) | 0.96 ± 0.015 | 0.985 ± 0.03 | 0.9188 ± 0.0076 | 0.909 ± 0.023 | 0.895 ± 0.026 | 0.894 ± 0.017 | 0.863 ± 0.039 | 0.863 ± 0.022
